{"source": "PubChem BioAssay AID1347076", "about": "(National Center for Advancing Translational Sciences (NCATS), 2019)", "note": "The campaign covered roughly 400,000 compounds. About 13,000 (3.2%) were called active. The inconclusive results got no clear call from the source; some entries with a clear call stand among them for comparison. Calls come from the whole dose curve; as a rule, active = well fitted cell-killing curve with a large enough effect; inconclusive = small, poorly fitted or top-dose-only effect, or effect the other way; inactive = flat fitted curve, though single readings scatter. Potencies of inconclusive entries are doubtful fits and often do not repeat. % is set by controls: 0 for no effect and ±100 for the full control effect; potency is the fitted concentration of half-maximal effect.", "data": [{"assay": "qHTS assay for MDR1-selective chemotherapeutics: Primary screen using the drug-selected MDR subline cells KB-V1; note: nearly all actives have a fitted effect of over 60% in size", "settings": "KB-V1 MDR cells viability, CellTiter-Glo, 72 h; activity change, negative = cytotoxicity: at 46.1 µM (top of the series)", "method_in_brief": "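Cells of the MDR subline KB-V1 are plated, dosed with compound at multiple concentrations, and incubated 72 h at 37 degrees C; CellTiter-Glo is then added and luminescence read after 10 min.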", "values": [{"smiles": "CN(C)C(=S)Nc1cccc(C(F)(F)F)c1", "activity change, negative = cytotoxicity": "inactive: 4.82%"}, {"smiles": "COc1ccc(C(=O)COC(=O)c2cnc(C)cn2)cc1OC", "Potency": "inconclusive: 29.1 µM [rising, single point]"}, {"smiles": "Cc1nn2c(C)c(C(=O)Nc3ccccc3)cnc2c1-c1ccccc1", "Potency": "inconclusive: 29.1 µM [cytotoxic, partial curve, poor fit]"}, {"smiles": "Cc1cc(C)n(-c2cc(N3CCN(S(=O)(=O)c4ccc(Br)cc4)CC3)ccc2[N+](=O)[O-])n1", "activity change, negative = cytotoxicity": "inconclusive: -96.9%"}, {"smiles": "CCN(CC)CCCN(C(=O)c1ccco1)c1nc(-c2ccc(C)cc2)cs1", "activity change, negative = cytotoxicity": "inactive: 0%"}, {"smiles": "CC(=O)Nc1nc2c(s1)C(=O)NCC(C)(C)C2", "Potency": "inconclusive: 18.4 µM [rising, single point]"}, {"smiles": "COCCNC(=O)CSC1=N/C(=C/c2ccc(Cl)c(Cl)c2)C(=O)N1c1ccccc1F", "activity change, negative = cytotoxicity": "inactive: -13.7%"}, {"smiles": "C/C(=N\\OC(=O)c1cccc(Cl)c1)c1sc(C)nc1C", "activity change, negative = cytotoxicity": "inactive: -6.03%"}, {"smiles": "COc1ccc2nc(C)cc(Nc3ccc(Cl)c(Cl)c3)c2c1", "Potency": "inconclusive: 14.6 µM [cytotoxic, single point]"}, {"smiles": "CC(C)c1cc(C(=O)Nc2sc3c(c2C#N)CCC3)no1", "Potency": "inconclusive: 0.517 µM [cytotoxic, full curve, poor fit]"}, {"smiles": "CCOC(=O)N1CCN(C(c2ccnc3ccccc23)c2nnnn2-c2ccc3c(c2)OCCO3)CC1", "note": "(stereo not drawn)", "Potency": "active: 18.4 µM"}, {"smiles": "C[C@@H]1CC=C[C@H]2[C@H]1C(=O)N(Cc1ccccc1)[C@H]2c1ccoc1", "activity change, negative = cytotoxicity": "inactive: -6.86%"}, {"smiles": "O=C(c1ccco1)N1CCN(Cc2cc(=O)oc3cc(O)ccc23)CC1", "Potency": "inconclusive: 2.91 µM [rising, partial curve, poor fit]"}, {"smiles": "CC(=O)Nc1ccc(N(C(=O)c2ccccn2)C(C(=O)NC2CCCCC2)c2ccc(F)cc2)cc1", "note": "(stereo not drawn)", "Potency": "inconclusive: 3.26 µM [rising, full curve, poor fit]"}, {"smiles": "O=C(CN(c1cccc(C(F)(F)F)c1)S(=O)(=O)c1ccc(Cl)c([N+](=O)[O-])c1)NCc1ccccc1Cl", "activity change, negative = cytotoxicity": "inactive: -20.1%"}, {"smiles": "COc1ccccc1NC(=O)C(C)OC(=O)Cn1cnc2c1c(=O)n(C)c(=O)n2C", "note": "(stereo not drawn)", "activity change, negative = cytotoxicity": "inactive: -2.31%"}, {"smiles": "CC(C)CN(C(=O)c1nn(C)c(=O)c2ccccc12)c1nc2ccccc2s1", "Potency": "inconclusive: 29.1 µM [cytotoxic, partial curve, poor fit]"}, {"smiles": "NC(=O)C1Cc2ccccc2CN1C(=O)c1cc(C2CC2)nn1-c1ccccc1", "note": "(stereo not drawn)", "Potency": "inconclusive: 29.1 µM [cytotoxic, single point]"}, {"smiles": "O=C(Cn1c(=O)oc2cc(S(=O)(=O)N3CCCCC3)ccc21)NCc1ccc(Cl)cc1", "Potency": "inconclusive: 20.6 µM [cytotoxic, single point]"}, {"smiles": "CCCCn1c(=NC(=O)c2cc3ccccc3o2)c(C(=O)OCC)cc2c(=O)n3ccccc3nc21", "activity change, negative = cytotoxicity": "inactive: 0.417%"}, {"smiles": "COc1cc(/C=N/NC(=O)c2cc(-c3ccccc3OC(C)C)nc3ccccc23)ccc1O", "Potency": "active: 11.6 µM"}, {"smiles": "CCCCCc1nc2sc3c(c2c(=O)n1NC(=O)c1ccc([N+](=O)[O-])cc1)CC(C)(C)OC3", "Potency": "inconclusive: 16.4 µM [cytotoxic, partial curve]"}, {"smiles": "Cc1ccc(/C=C/C(=O)Nc2cc(S(=O)(=O)N3CCCCCC3)ccc2OCC(F)(F)F)o1", "Potency": "inconclusive: 9.2 µM [cytotoxic, partial curve]"}, {"smiles": "COc1ccc2c(c1)C=C(CN1CCC(CO)(CCc3ccccc3)CC1)CO2", "activity change, negative = cytotoxicity": "inconclusive: 0%"}, {"smiles": "O=C(CSc1nnc(-c2ccccn2)n1Cc1ccco1)Nc1ccc2c(c1)OCO2", "Potency": "inconclusive: 0.461 µM [cytotoxic, partial curve, poor fit]"}, {"smiles": "O=C1CCCC[C@@H](O)[C@H](O)C[C@H](c2ccccc2)O1", "activity change, negative = cytotoxicity": "inactive: -26.1%"}, {"smiles": "Cc1ccc2cc(CN(CCCN3CCOCC3)C(=O)NC3CCCCC3)c(=O)[nH]c2c1C", "Potency": "inconclusive: 8.2 µM [cytotoxic, partial curve]"}, {"smiles": "N#Cc1cc2c(nc1SCc1cccnc1)CCCCC2", "Potency": "inconclusive: 23.1 µM [cytotoxic, partial curve, poor fit]"}, {"smiles": "OC(CNCC(c1ccc(Cl)cc1Cl)c1c[nH]c2ccccc12)c1ccccc1", "note": "(stereo not drawn)", "Potency": "active: 23.1 µM"}, {"smiles": "Cc1cccc2c(C(=O)N3CCN(C(=O)c4ccco4)CC3)cc(-c3cccc(Br)c3)nc12", "Potency": "active: 9.2 µM"}, {"smiles": "Cc1ccc(Cn2c(C(=O)O)c(CNC3CCCC3)c3ccc(C)cc32)cc1", "Potency": "inconclusive: 29.1 µM [rising, single point]"}, {"smiles": "O=C(COC(=O)c1ccc(O)cc1)NC(c1ccccc1)c1ccccc1", "Potency": "inconclusive: 20.6 µM [cytotoxic, single point]"}, {"smiles": "COc1ccc(N=C2SC(C(=O)O)CC(=O)N2Cc2ccc(OC)c(OC)c2)cc1", "note": "(stereo not drawn)", "Potency": "inconclusive: 11.6 µM [cytotoxic, partial curve, poor fit]"}, {"smiles": "O=C(C1=C[C@H](c2ccc(Br)cc2)C[C@H](OCCCCO)O1)N1CCN(Cc2ccc3c(c2)OCO3)CC1", "Potency": "inconclusive: 16.4 µM [cytotoxic, single point]"}, {"smiles": "Cc1ccc(S(=O)(=O)NCC(=O)Nc2cccc([N+](=O)[O-])c2)cc1", "Potency": "inconclusive: 29.1 µM [cytotoxic, single point]"}, {"smiles": "O=C(NC(=O)c1ccccc1)Nc1ccccc1O", "activity change, negative = cytotoxicity": "inactive: 13.8%"}, {"smiles": "CCc1cc(C(=O)O)c(NC(=O)C(c2ccccc2)c2ccccc2)s1", "activity change, negative = cytotoxicity": "inactive: 2.75%"}, {"smiles": "Cc1cc(C)cc(-n2c(SCC(N)=O)nc3c([nH]c4ccccc43)c2=O)c1", "activity change, negative = cytotoxicity": "inactive: 11.9%"}, {"smiles": "O=C(CC1(O)C(=O)N(C/C=C/c2ccccc2)c2ccccc21)c1ccccn1", "note": "(stereo not drawn)", "Potency": "inconclusive: 35.5 µM [cytotoxic, single point]"}, {"smiles": "COc1ccc(OCC(=O)NNc2c3ccccc3nc3ccccc23)cc1", "Potency": "active: 4.61 µM"}, {"smiles": "Cc1ccc(C(=O)Nc2ccccc2C(=O)N2CCCCCC2)cc1", "Potency": "inconclusive: 16.4 µM [cytotoxic, partial curve]"}, {"smiles": "CCN(CC(=O)Nc1ccccc1OC)C(=O)CSCc1c(C)noc1C", "Potency": "inconclusive: 29.1 µM [cytotoxic, single point]"}, {"smiles": "C/C(CC(=O)Nc1ccccn1)=N\\NC(=O)C(=O)Nc1cccc(Cl)c1C", "Potency": "inconclusive: 2.59 µM [rising, full curve]"}]}]}
